In paper PMC5991575:
Substitutions are numbered along the chain they refer to. Results are given in words; binding and its absence hold for the method and conditions named. Binding seen in cells or lysates may run through a third protein. Some results given as binding are weak or reduced against the parent protein; the word gives no strength. Tags and fused reporters may be left off the sequences shown.

Tests used:
Assay in all cases: co-IP; HeLa cells cotransfected with Mia40-MYC and CHCHD10-HA variants; lysis buffer 120 mM NaCl, 1 mM EDTA, 0.5% NP-40, 20 mM Tris-HCl pH 8; lysate incubated with HA-labeled magnetic beads overnight at 4°C; immunoblot with antibodies against Mia40 and HA
[1] = target: T1, CHCHD10-HA ΔCHCH (human) (UniProt Q8WYQ3)
T1 sequence: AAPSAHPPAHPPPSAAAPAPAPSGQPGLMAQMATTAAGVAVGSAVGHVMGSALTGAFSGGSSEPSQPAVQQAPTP

[2] = target: T2, CHCHD10-HA wild-type (human) (UniProt Q8WYQ3)
T2 sequence: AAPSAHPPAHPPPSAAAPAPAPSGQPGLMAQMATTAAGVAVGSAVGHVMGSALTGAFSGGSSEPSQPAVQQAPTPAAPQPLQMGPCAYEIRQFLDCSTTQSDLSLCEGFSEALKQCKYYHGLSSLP

[3] = target: T3, CHCHD10-HA Q108* (human) (UniProt Q8WYQ3)
T3 sequence: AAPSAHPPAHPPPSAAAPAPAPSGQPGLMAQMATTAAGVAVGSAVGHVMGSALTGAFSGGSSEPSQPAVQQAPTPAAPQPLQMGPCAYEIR

[4] = target: T4, CHCHD10-HA Q108P (human) (UniProt Q8WYQ3)
T4 sequence: T2 sequence with Q92P

B1: Mia40-MYC (enzyme, UniProt Q8N4Q1 1-142)
chain: MSYCRQEGKDRIIFVTKEDHETPSSAELVADDPNDPYEEHGLILPNGNINWNCPCLGGMASGPCGEQFKSAFSCFHYSTEEIKGSDCVDQFRAMQECMQKYPDLYPQEDEDEEEEREKKPAEQAEETAPIEATATKEEEGSS
binding [1]: no binding
binding [2]: binds
binding [3]: binds weakly
binding [4]: binds
